Reference: article PMC7573076
These are yes or no findings as the source states them, for the method shown. In cells and extracts the contact can be indirect. Some entries that bind do so weakly or less than the wild type. For part of these data: Sequences can lack the tags named with a protein.

Sequences of proteins named here, by UniProt entry; tags and fusion partners are left off.
UniProt P08106: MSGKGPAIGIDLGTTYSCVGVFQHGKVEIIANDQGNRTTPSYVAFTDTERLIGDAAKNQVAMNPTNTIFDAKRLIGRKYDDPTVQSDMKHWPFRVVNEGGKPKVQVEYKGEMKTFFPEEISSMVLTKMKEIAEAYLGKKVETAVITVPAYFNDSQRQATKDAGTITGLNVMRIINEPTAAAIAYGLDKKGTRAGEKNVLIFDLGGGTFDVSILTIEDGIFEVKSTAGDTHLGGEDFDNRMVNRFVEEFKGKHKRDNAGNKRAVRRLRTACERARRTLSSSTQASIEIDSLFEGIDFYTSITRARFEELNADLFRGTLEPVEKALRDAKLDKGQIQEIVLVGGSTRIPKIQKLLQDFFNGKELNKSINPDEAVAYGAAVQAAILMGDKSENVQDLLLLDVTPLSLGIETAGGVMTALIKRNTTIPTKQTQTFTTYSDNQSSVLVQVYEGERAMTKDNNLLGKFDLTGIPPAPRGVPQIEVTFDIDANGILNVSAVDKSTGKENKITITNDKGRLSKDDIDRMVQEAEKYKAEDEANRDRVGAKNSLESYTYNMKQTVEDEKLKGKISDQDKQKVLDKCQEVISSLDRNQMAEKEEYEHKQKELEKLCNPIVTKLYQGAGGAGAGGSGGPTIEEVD
UniProt O73885: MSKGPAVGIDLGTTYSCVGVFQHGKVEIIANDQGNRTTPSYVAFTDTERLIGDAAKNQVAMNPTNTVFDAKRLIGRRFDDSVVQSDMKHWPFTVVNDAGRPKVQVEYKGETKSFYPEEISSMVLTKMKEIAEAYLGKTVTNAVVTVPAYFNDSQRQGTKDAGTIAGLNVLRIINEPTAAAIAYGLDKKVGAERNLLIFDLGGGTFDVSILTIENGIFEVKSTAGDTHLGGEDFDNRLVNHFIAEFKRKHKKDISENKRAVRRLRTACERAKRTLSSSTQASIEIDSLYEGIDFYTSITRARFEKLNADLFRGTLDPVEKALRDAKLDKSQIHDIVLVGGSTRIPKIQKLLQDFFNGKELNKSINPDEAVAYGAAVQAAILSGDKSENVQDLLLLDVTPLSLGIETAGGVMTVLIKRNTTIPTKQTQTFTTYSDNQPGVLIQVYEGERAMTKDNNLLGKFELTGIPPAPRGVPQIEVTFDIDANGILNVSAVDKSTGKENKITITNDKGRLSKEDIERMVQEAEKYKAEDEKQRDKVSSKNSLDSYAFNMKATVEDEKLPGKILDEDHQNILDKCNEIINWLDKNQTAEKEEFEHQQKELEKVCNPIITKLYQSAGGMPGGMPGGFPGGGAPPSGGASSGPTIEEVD

Tests used:
[1] = target: T1, HA-chMDA5-N (chicken) (UniProt D9N195); assay: co-IP; tagged constructs co-transfected into DF1 cells, RIPA lysate 24 h later, anti-Flag or anti-HA magnetic beads at 4°C, immunoblot
T1 sequence: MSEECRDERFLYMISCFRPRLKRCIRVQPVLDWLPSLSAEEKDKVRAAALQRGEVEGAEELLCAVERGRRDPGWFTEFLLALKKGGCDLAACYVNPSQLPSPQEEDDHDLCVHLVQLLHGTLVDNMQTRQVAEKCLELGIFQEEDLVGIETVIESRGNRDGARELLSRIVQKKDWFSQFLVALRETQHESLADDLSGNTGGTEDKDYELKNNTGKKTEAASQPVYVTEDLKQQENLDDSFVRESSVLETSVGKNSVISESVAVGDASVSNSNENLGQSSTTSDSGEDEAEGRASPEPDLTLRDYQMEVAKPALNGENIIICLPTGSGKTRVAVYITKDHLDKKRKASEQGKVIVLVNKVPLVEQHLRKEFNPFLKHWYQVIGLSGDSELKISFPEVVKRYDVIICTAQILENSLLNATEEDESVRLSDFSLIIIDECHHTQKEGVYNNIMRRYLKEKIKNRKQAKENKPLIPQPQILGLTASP

[2] = target: T2, chicken MDA5 (chMDA5) (chicken (endogenous in DF1)) (UniProt D9N195); assay: co-IP; DF1 cell lysates immunoprecipitated with rabbit pAb against chMDA5, western blotting with antibodies against the endogenous proteins (Supplementary Figure S2)
T2 sequence: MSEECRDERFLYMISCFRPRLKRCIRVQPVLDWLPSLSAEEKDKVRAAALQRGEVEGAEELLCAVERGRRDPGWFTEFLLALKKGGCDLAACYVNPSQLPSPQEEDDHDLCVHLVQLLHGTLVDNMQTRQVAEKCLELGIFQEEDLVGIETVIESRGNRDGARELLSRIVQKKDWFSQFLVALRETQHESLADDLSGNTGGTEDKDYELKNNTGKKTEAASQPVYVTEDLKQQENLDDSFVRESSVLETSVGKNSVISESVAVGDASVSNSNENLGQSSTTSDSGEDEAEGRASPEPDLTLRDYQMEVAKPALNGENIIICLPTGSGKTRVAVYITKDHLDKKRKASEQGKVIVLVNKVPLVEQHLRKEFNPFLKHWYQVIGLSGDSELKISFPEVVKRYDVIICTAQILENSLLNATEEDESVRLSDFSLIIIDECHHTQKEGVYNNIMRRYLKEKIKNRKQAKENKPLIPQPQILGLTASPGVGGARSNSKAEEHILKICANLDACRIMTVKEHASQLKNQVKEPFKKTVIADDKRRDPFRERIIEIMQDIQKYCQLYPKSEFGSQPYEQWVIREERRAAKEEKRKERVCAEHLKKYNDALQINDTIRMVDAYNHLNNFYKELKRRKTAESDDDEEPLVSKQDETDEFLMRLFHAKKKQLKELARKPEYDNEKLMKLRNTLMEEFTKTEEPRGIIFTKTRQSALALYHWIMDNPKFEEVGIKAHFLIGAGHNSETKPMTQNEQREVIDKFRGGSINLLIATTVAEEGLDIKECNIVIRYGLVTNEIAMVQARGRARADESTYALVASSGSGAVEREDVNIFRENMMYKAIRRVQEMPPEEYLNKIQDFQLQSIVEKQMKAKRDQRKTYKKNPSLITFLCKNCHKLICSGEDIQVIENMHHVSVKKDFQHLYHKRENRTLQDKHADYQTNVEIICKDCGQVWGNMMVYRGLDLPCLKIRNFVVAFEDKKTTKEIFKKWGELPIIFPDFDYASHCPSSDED

Molecule	binding [1]	binding [2]
Flag-tagged chicken HSP70 (from UniProt P08106 1-634)	binds	
Flag-tagged chicken HSPA8 (from UniProt O73885 1-646)	binds	
chicken HSP70 (from UniProt P08106 1-634)		binds
chicken HSPA8 (from UniProt O73885 1-646)		binds
Flag-tagged chicken PRDX1 (protein, UniProt P0CB50 1-199) MSSGKAFIGKPAPDFTATAVMPDGQFKDIKLSDYRGKYVVFFFYPLDFTFVCPTEIIAYSDRADEFKKINCEIIGASVDSHFCHLAWINTPKKQGGLGTMKIPLVSDTKRVIAKDYGVLKEDEGIAYRGLFIIDEKGILRQITINDLPVGRSVDETLRLVQAFQFTDKHGEVCPAGWKPGSDTIKPDVQKSKEYFSKQK	binds	
chicken PRDX1 (protein, UniProt P0CB50 1-199) MSSGKAFIGKPAPDFTATAVMPDGQFKDIKLSDYRGKYVVFFFYPLDFTFVCPTEIIAYSDRADEFKKINCEIIGASVDSHFCHLAWINTPKKQGGLGTMKIPLVSDTKRVIAKDYGVLKEDEGIAYRGLFIIDEKGILRQITINDLPVGRSVDETLRLVQAFQFTDKHGEVCPAGWKPGSDTIKPDVQKSKEYFSKQK		binds
